System: cardiomyocytes prepared by inducing differentiation of a human iPS cell line (253G1)

Cc1cccc(CCN2CCC(C(=O)c3ccc(NS(C)(=O)=O)cc3)CC2)n1 [E-4031]
detected: expected drug response | expected drug response (EAD arrhythmia) | expected drug response (prolongation of the duration of the Ca^2+ waveform or EAD arrhythmia)

Source: patent publication US11726083B2, “Method for testing drug response of cardiomyocytes” (Myoridge Co. Ltd., priority 2017, dated 2023)
